This note sets out measurements from PubChem BioAssay AID1347426 (Functional Genomics Laboratory (NCATS/FGL), 2020).

Out of some 31,000 sequences screened, about 1,400 (4.5%) were called active.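 How the source made its calls: active means median seed-adjusted z-score above 1 or below -1; inactive means the rest.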 The list shows a part of the results.

The assay is described as follows: Novel Modifiers of Survival Motor Neuron (SMN) Protein: Gene Identification via Genome-wide siRNA Screen.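 Further: luminescence tracks full-length SMN protein made from the SMN2 reporter.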 As to conditions: HEK293T SMN2-luciferase reporter, siRNA knockdown, 72 h; actives lie on both sides. The procedure, abridged: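 Steps: spot 1 pmol siRNA, add Lipofectamine RNAiMax in serum-free DMEM, seed HEK293T SMN2–luciferase reporter cells; incubate 72 h at 37 °C; add ONE-Glo; normalize luminescence to control siRNA, log10, MAD. Candidates: |MAD| > 1.0.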
Regarding CGCUCGAUUCUAUUCGCUATT against CHRNA5, the median seed-adjusted z-score was inactive: 0.
Consider CGAAGAGAUUGCAAAAGUUTT against TMED10, for which the median seed-adjusted z-score was inactive: 0.523.
Consider GAGACUUUCUACAAUACUATT against EIF4A2, for which the median seed-adjusted z-score was inactive: 0.
For GGCAGUAAAGGAAAUCGAATT against JARID1B, the median seed-adjusted z-score is inactive: 0.
Then CGUCUAUAUAGGGAGAAAATT against LILRB2, with inactive: -0.911.
Then CAGUCACUGAAAUAUUAGATT against NUDT4, with inactive: -0.0306.
Turning to GGGUAAUAAUACUAGCAAUTT against ITGA8, the median seed-adjusted z-score is inactive: -0.215.
Take CAACAGAAUAUGCCGUAUATT against SNRPA1: the median seed-adjusted z-score is active: -2.71.
Regarding CCACGGUCAUCAUAUGUCATT against BICC1, the median seed-adjusted z-score is inactive: -0.352.
As for CAGCUGACGUGACCCAUGATT against SLC2A1, the median seed-adjusted z-score was inactive: -0.349.
For the sequence GGAAAUCUAGUUAUUUACATT against NME1, the median seed-adjusted z-score was inactive: 0.188.
Consider CGUCAUCUCCCGUUCUCCATT against CIB1, for which the median seed-adjusted z-score is inactive: 0.14.
On to GCUUUGCUCUGUACCCUGATT against CTSK, for which the median seed-adjusted z-score was inactive: 0.0972.
For CUACCACCUCGGUUAUUUUTT against SYNPO2L, the median seed-adjusted z-score is inactive: -0.47.
Then CCAGAAGUCUGGAUAGAUUTT against FIGLA, with inactive: -0.064; and GCUCAACAACUGGGACAAATT against TBC1D10A, with inactive: -0.722.
Consider CUACGUUACUUUCCCUCAATT against FOXD4L6, for which the median seed-adjusted z-score was inactive: -0.137.
To GGAAAUUGAGAAUCUAGAATT against SLK belongs inactive: 0.0479.
To CGGCUGCAUGAUUACGUUATT against RAB26 belongs inactive: 0.171.
To GGUAUGAUCUUGUCCUGAUTT against LIPH belongs inactive: 0.0437.
On to GCGCUAAGCUGCAACGAAATT against LHX2, for which the median seed-adjusted z-score was inactive: 0.464.
To CGACAACCACUUCAAUUAUTT against CHN2 belongs inactive: -0.478; to GCUGGAUUGUGAAUCGCAUTT against MYO3B, inactive: 0.51.
Consider GGUAAUACGUGAAAGCAAATT against IGF1, for which the median seed-adjusted z-score was inactive: 0.559.
To GAUUUGUCGUCAUUAAUCATT against CCT6B belongs inactive: 0; to GAGUCUGCUUGGGUGAAUATT against SLC7A2, inactive: -0.245.
Regarding CACUCCAUCUCUUACAAGATT against KCNK9, the median seed-adjusted z-score was inactive: 0.735.
Regarding GGCUUAUAAGGAUUUGUAUTT against DPYSL3, the median seed-adjusted z-score is inactive: -0.226.
Then CAUUGAACAUUGAGUGUUUTT against HSPA4L, with inactive: 0.288; and GCCUGGUACUCCUCUAUAUTT against CYP3A43, with inactive: -0.599; and GUAUGGAUUUGUUAACUAUTT against ELAVL4, with inactive: -0.0523.
Take GAAGCAGAGGACAACAUGATT against SNRPD3: the median seed-adjusted z-score is active: -2.69.
Then GUGACGAAAUGGAACAAGATT against EIF2AK3, with inactive: -0.0208; and AGAAUCGUGUGGAAAAAGATT against PARK7, with inactive: -0.357.
To GCGAGAGAGUUGUACAACATT against ITPR2 belongs inactive: 0; to CAAAUAAGCUCAGAACAAATT against DOC2B, inactive: -0.423; to GACCAUGUAUAGGAGCGAATT against SLC25A19, inactive: -0.104.
To CUUCUGAACUCGGUCCUCATT against SLC5A5 belongs active: 1.01; to GCCGAUUUCUACGAGCAGATT against NAGLU, inactive: -0.526.
GACUCGACAGGUUUUUAUATT against CDC2L2: the median seed-adjusted z-score is inactive: 0.153.
AGCUGUCAGUGAAGCUCUATT against C8G: the median seed-adjusted z-score was inactive: -0.622.
On to GCAUAAUAAGGGUAGGGAUTT against DDX53, for which the median seed-adjusted z-score was inactive: -0.136.
To GGAAGAUUACAACCGAACATT against ARHGEF12 belongs inactive: 0.136; to GAAUAUCCGAGGGAAGGUATT against UBN1, inactive: 0.0782.
To GAAUCCCACAGGAUCAUUATT against GRB10 belongs inactive: -0.0341.
To CCACGCUGAUCUGAAGAUATT against LRPAP1 belongs inactive: -0.0616; to GCCUAGAACAACUAACGAATT against RB1CC1, inactive: 0.0878; to CGAAUUAUGCUGUAUCAUUTT against ACTR6, inactive: 0.189.
On to CCUCGAAACCGACGAGAAATT against RBMXL2, for which the median seed-adjusted z-score is inactive: -0.387.
GGACCAUAAUCAACAUAGATT against ZNF585B: the median seed-adjusted z-score is inactive: 0.158.
To GAACCAGGUUGCAAGAUUUTT against RUNX1 belongs inactive: -0.0264; to GGUGGAUGAUGCUAGUGUATT against GALNT3, inactive: -0.0426.
Take CAGUCUUCUUAGAAGCUCUTT against SERTAD3: the median seed-adjusted z-score was inactive: -0.216.
To AGACCACGACUCCAGCUUATT against EIF4H belongs inactive: 0.0349.
For CGUGCUUUGAGUACCCGAATT against TAT, the median seed-adjusted z-score was inactive: 0.257.
Then CUAUUAUCCUUGCCGUAAATT against MTIF2, with inactive: 0.236.
To GGGAAGAACAGAAUACUGATT against ZNF563 belongs inactive: 0.00283.
Then AGGCUACUGCGUGUACAUATT against SLC16A5, with inactive: -0.151; and GGAUUAUCCUGGACUCUGUTT against HPX, with inactive: -0.451; and GAGAUAUUGUGGAAGGGAATT against GPR133, with inactive: -0.681.
In the case of GCUGGGAAGGGAUACCACATT against LTBP3, the median seed-adjusted z-score was inactive: -0.0236.
With GUCUGGAGAUCAUAUUUUUTT against PIM3, the median seed-adjusted z-score was active: -1.01.
Turning to GCUCAGAAGCGGAAUCAGATT against SIGLEC10, the median seed-adjusted z-score was inactive: 0.0542.
To GGAUCUAAAAUAUUGUUCATT against KIF4B belongs inactive: -0.0753; to GCUGCGUCAUAUUCAGUCATT against HERC5, inactive: -0.422.
GAAAGUCGCUUUCUUUUUATT against FOXC1: the median seed-adjusted z-score is inactive: -0.447.
For GCAAAGGAGUCGAGUAUAATT against CRYZ, the median seed-adjusted z-score was inactive: -0.809.
As for GAACUUCAAUGGAAAACAUTT against L3MBTL4, the median seed-adjusted z-score is inactive: -0.189.
Then UGCUCUUCUUGGAUGGUGATT against QPCTL, with inactive: -0.422; and CCUCAGAUCUACCCACAGATT against CSF2RB, with inactive: -0.454.
For AGACCCUGGUUAGACCAAATT against MDM2, the median seed-adjusted z-score was inactive: 0.258.
To CUCCUCGAGUUAAUCAAAATT against TSSK1B belongs inactive: -0.169; to GACUCAACAUACACCCAGATT against NEGR1, inactive: 0.194.
Take ACACCCAUCCUUAAGCUAATT against NXPH3: the median seed-adjusted z-score was inactive: 0.056.
Then GCGUGGAAAAUAUUCGUGATT against SMC1B, with inactive: 0; and CCCUAAUCAUCAUCCAGGATT against ZSCAN4, with inactive: 0.617.
As to CAAUUACGGAACUCACAAATT against ZNF8, the median seed-adjusted z-score was inactive: 0.97.
Then CCUCCACAGUCAUAGCCUATT against SSH1, with inactive: 0.209; and AGAGUGCGGAUGAUGUGAATT against PVALB, with inactive: 0.11.
As for CUAUCGAACUGGGAAACGATT against MDN1, the median seed-adjusted z-score is inactive: 0.187.
Take GGACUGUUGUAAUAACGGATT against UPP2: the median seed-adjusted z-score was inactive: 0.586.
In the case of GGAGAUAUGCAAAGCAGAATT against POU5F1, the median seed-adjusted z-score is inactive: 0.0495.
To CCAGCUCAUCGUUCUCCUATT against CLCN7 belongs inactive: -0.28.
Then GGAUUGUUGUUCAUGAAUUTT against TLL1, with inactive: 0.396; and GAUAAUCAACGACUAUGAATT against CASP8, with inactive: 0.413.
Then GUCUAAUGCACUUAGCUAATT against HEL308, with inactive: 0.229; and AAAACGGAGUGGAAAAGAATT against DZIP1L, with inactive: 0.203; and GAACUAUAAAGGUAUGGAATT against BTRC, with inactive: -0.0819.
On to GCAAUUUGCUGGGAUCAAUTT against SLCO6A1, for which the median seed-adjusted z-score was inactive: 0.0239.
To GAAGUACCCUGACAACCGATT against DOCK10 belongs inactive: -0.201; to GUGACUGCAUUCGAACAUATT against LAMA2, inactive: 0.0733.
Then AGAUUCUUAUUGCAUGACATT against NLGN4Y, with inactive: 0.317; and GCAUCUAUCAGUUCGAGUATT against EVI5L, with inactive: 0.0497.
CAACUAUCUCAGGCCUUAATT against TRIM67: the median seed-adjusted z-score is inactive: -0.431.
GCCUAUUACAAAUCAACUUTT against ZNF766: the median seed-adjusted z-score is inactive: -0.577.
Take GGCAGACCUUUACAACUCATT against SP1: the median seed-adjusted z-score was inactive: 0.544.
Turning to GGACAAUGUCAGAACAAGATT against CNOT6, the median seed-adjusted z-score is inactive: 0.146.
To AGAUUUGCCUGAUGCUCAATT against RGS10 belongs inactive: 0.304.
To GGUACCCAAGGCCUGCUUATT against POLR2J2 belongs inactive: 0.375.
To GGAUUACAUGGAUCGUCUUTT against MIER1 belongs inactive: 0.0271.
GACUUGAUCUUGAUCAAUUTT against TEK: the median seed-adjusted z-score is inactive: -0.347.
To CAGUCAAAUCUAUCGUUUUTT against NCOA2 belongs inactive: 0.149; to GAAACAAUUCAGAACAUGATT against PSMD11, inactive: -0.156; to CGUAUACUAUUAUCACGUUTT against ATP6V0A1, inactive: 0.103.
As to GCAUUGAUCGCUAUCUGAATT against GPR87, the median seed-adjusted z-score is inactive: 0.237.
Then CUGCGGACCCAAUACAUGATT against ARID3A, with active: -1.11; and GACUGGAGUUGAAUGGGAATT against SIAH2, with inactive: 0.156.
